B1: Hsph1 (protein, UniProt Q66HA8 1-858)
chain: MSVVGLDVGSQSCYIAVARAGGIETIANEFSDRCTPSVISFGPKNRTIGVAAKNQQITHANNTVSSFKRFHGRAFNDPFIQKEKENLSYDLVPMKNGGVGIKVMYMDEDHLFSVEQITAMLLTKLKETAENNLKKPVTDCVISVPSFFTDAERRSVLDAAQIVGLNCLRLMNDMTAVALNYGIYKQDLPNADEKPRVVVFVDMGHSSFQVSACAFNKGKLKVLGTAFDPFLGGKNFDEKLVEHFCAEFKTKYKLDAKSKIRALLRLHQECEKLKKLMSSNSTDLPLNIECFMNDKDVSAKMNRSQFEELCAELLQKIEVPLHLLMEQTHLKTEEVSAIEIVGGATRIPAVKERIARFFGKDVSTTLNADEAVARGCALQCAILSPAFKVREFSVTDAVPFPISLVWNHDSEETEGVHEVFSRNHAAPFSKVLTFLRRGPFELEAFYSDPQAVPYPEAKIGRFVVQNVSAQKDGEKSKVKVKVRVNTHGIFTISTASMVEKVPTEEEDGSSVEADMECPNQKPAESSDVDKNIQQDNSEAGTQPQVQTDGQQTSQSPPSPELTSEENKIPDADKANEKKVDQPPEAKKPKIKVVNVELPVEANLVWQLGRDLLNMYIETEGKMIMQDKLEKERNDAKNAVEECVYEFRDKLCGPYEKFICEQEHEKFLRLLTETEDWLYEEGEDQAKQAYIDKLEELMKMGTPVKVRFQEAEERPRVLEELGQRLQHYAKIAADFRGKDEKYNHIDESEMKKVEKSVNEVMEWMNNVMNAQAKRSLHQDPVVRTHEISAKVKELNNVCEPVVTQPKPKIESPKLERTPNGPNMDKKEDLEGKSNLGADAPHQNGECHPNEKGSVSMDLD
B2: Acsbg1 (protein, UniProt Q924N5 1-721)
chain: MPRSSEAGYCCLSRDSNMPDSRDDQQQGASMGTSPDNSQTSSLIDGRTLSKESPSHGLELSAPEKARAASLDASEEALWTTRADGRVRLRLEPFCTQLPYTVHQMFYEALDKYGNLSALGFKRKDKWERISYYQYYLIARKVAKGFLKLGLERAHSVAILGFNSPEWFFSAVGTVFAGGIVTGIYTTSSPEACQYIAHDCRANVIVVDTQKQLEKILKIWKDLPHLKAVVIYQEPPPKKMANVYTMEELIELGQEVPEEALDAIIDTQQPNQCCVLVYTSGTTGNPKGVMLSQDNITWTARYGSQAGDIQPAEVQQEVVVSYLPLSHIAAQIYDLWTGIQWGAQVCFADPDALKGTLVNTLREVEPTSHMGVPRVWEKIMERIQEVAAQSGFIRRKMLLWAMSVTLEQNLTCPSNDLKPFTSRLADYLVLARVRQALGFAKCQKNFYGAAPMTAETQRFFLGLNIRLYAGYGLSESTGPHFMSSPYNYRLYSSGRVVPGCRVKLVNQDADGIGEICLWGRTIFMGYLNMEDKTHEAIDSEGWLHTGDMGRLDDDGFLYITGRLKELIITAGGENVPPVPIEEAVKMELPIISSAMLIGDQRKFLSMLLTLKCTLNPETSEPTDNLTEQAVEFCQRVGSKASTVSEIVGQKDEAVYQAIHEGIQRVNANAAARPYHIQKWAILERDFSISGGELGPTMKLKRLTVLEKYKDIIDSFYQEQKQ
B3: Ina (protein, UniProt P23565 1-505)
chain: MSFGSEHYLCSASSYRKVFGDGSRLSARLSGPGASGSFRSQSLSRSNVASTAACSSASSLGLGLAYRRLPASDGLDLSQAAARTNEYKIIRTNEKEQLQGLNDRFAVFIEKVHQLETQNRALEAELAALRQRHAEPSRVGELFQRELRELRAQLEEASSARAQALLERDGLAEEVQRLRARCEEESRGREGAERALKAQQRDVDGATLARLDLEKKVESLLDELAFVRQVHDEEVAELLATLQASSQAAAEVDVAVAKPDLTSALREIRAQYESLAAKNLQSAEEWYKSKFANLNEQAARSTEAIRASREEIHEYRRQLQARTIEIEGLRGANESLERQILELEERHSAEVAGYQDSIGQLESDLRNTKSEMARHLREYQDLLNVKMALDIEIAAYRKLLEGEETRFSTSGLSISGLNPLPNPSYLLPPRILSSTTSKVSSAGLSLKKEEEEEEEEEEGASKEVTKKTSKVGESFEETLEETVVSTKKTEKSTIEEITTSSSQKM
B4: Pfkp (protein, UniProt P47860 1-788)
chain: MSDQDSSTSSTSFPKYLEHLSGDGKAIGVLTSGGDAQGMNAAVRAVVRMGIYTGAKVYFIYEGYQGMVDGGSNIVEAKWECVSSILQVGGTIIGSARCQAFRSREGRLKAACNLVRLGITNLCVIGGDGSLTGANLFRKEWSGLLEELAKNGEIDSDTVKKHAYLNVVGMVGSIDNDFCGTDMTIGTDSALHRIIEVVDAIMTTAQSHQRTFVLEVMGRHCGYLALVSALACGADWVFLPESPPEEGWEEEMCLKLSENRARKKRLNIIIVSEGAIDTQNKPITSEKIKELVVTNLGFDTRVTILGHVQRGGTPSAFDRILASRMGVEAVLALLEATPETPACVVSLRGNQAVRLPLMECVQMTQDVQKAMDERRFDEAVKLRGRSFEGNLNTYKRLAIKEPDDKIPKSNCNVAIINVGAPAAGMNAAVRSAVRVGIAEGHKMFAIYDGFDGLANGQIKEIGWGDVGGWTGQGGSILGTKRTLPGKYLEKIAEQMHSKNINALLIIGGFEAYLGLLELAAARNKHEAFCVPMVMVPATVSNNVPGSDFSIGADTALNTITDTCDRIKQSASGTKRRVFIIETMGGYCGYLANMGGLAAGADAAYIFEEQFDIRDLQSNVMHLTEKMKTSIQRGLVLRNENCSVNYTTDFIYQLYSEEGKGVFDCRKNVLGHMQQGGAPSPFDRNFGTKISAKAMEWISAKLKGSHGTGKKFVSDDSICVLGIQKRDLLFKPVAELRKATDFEHRIPKQQWWLKLRPIMKILAKYEASYDMSDVGKLEPVHNHGELSAI
B5: Mogs (protein, UniProt O88941 1-834)
chain: MARGERRRRAAAAEGARPLERARGAGRRDGRAGGARGSAGGAALAVVVLALAFGLSGRWVLAWLGVRRALTLHPAPSALPPDSSSPAVAPEFFWGTYRPHVYFGMKTRSPKPLLTGLMWAQQGATPGTPPKLRHTCEQGDGVGPYGWEFHDGLSFGRQHIYDGALRLTTEFVKRSGGHHGGDWSWRVTVEPQASGTPSFPLVSLFFYVVTDGQEVLLPEVGAKGQLKFISGHTSELGDFRLTLLPPTTPGDTVPKHGSYNVFWSSNPGLPLLTDMVKSHLNSWFHHRPPGASPERYLGLPGSLKWEERGPSGQGQFLVQQVTLKAPFSVEFVFESGSARTGRDQASEQLVGGQLTRALESHAAAFKERFERTFQLKEKGLSPEEQALGQVALSGLLGGIGYFYGQGLVLPDTGMEGSEQKMDPSLFPPVPLFSGVPSRSFFPRGFLWDEGFHQLVVQRWDPHLTREALGHWLGLLNADGWIGREQILGDEARARVPPEFLVQRAAHANPPTLLLPVIHMLEGRAPEDLAFLRRAFPRLHAWFSWLHQSQAGPVPLSYRWRGRDLALPTLLNPKTLPSGLDDYPRASHPSAAERHLDLRCWVTLGARVLSQLAEELGETEAAAELGPLAASLEAAGSLDELHWAPELGVFADFGNHTKAVQLKSRPPQGLVRVVGRPPARLQYVDALGYVSLFPLLLQLLEPSSPRLGPLLDVLADSRHLWSPFGLRSLSASSLFYKQRNTEHDPPYWRGAVWLNINYLALGALHHYGRVEGPHKVQAAKLYRELRANVVSNVRQQYQATGFLWEQYSDQDGRGMGCRPFQGWTSLVLLIMAEEY
B6: Pygb (protein, UniProt P53534 1-838)
chain: MAKPLTDSERQKQISVRGIAGLGDVAEVRKSFNRHLHFTLVKDRNVATPRDYFFALAHTVRDHLVGRWIRTQQHYYERDPKRIYYLSLEFYMGRTLQNTMVNLGLQTACDEATYQLGLDLEELEEIEEDAGLGNGGLGRLAACFLDSMATLGLAAYGYGIRYEFGIFNQKIVNGWQVEEADDWLRYGNPWEKARPEYMLPVHFYGRVEHTPNGVLWLDTQVVLAMPYDTPVPGYKNNTVNTMRLWSAKAPNDFKLKDFNVGDYIEAVLDRNLAENISRVLYPNDNFFEGKELRLKQEYFVVAATLQDIIRRFKSSKFGCRDPVRTCFETFPDKVAIQLNDTHPALSIPELMRILVDVEKVDWDKAWEITKKTCAYTNHTVLPEALERWPVSMFEKLLPRHLEIIYAINQRHLDHVAALFPGDVDRLRRMSVIEEGDCKRINMAHLCVIGSHAVNGVARIHSEIVKQSVFKDFYELEPEKFQNKTNGITPRRWLLLCNPGLAEIIVERIGEGFLTDLSQLKKLLSLVDDEAFIRDVAKVKQENKLKFSAQLEKEYKVKINPCSMFDVHVKRIHEYKRQLLNCLHIITLYNRIKKDPTKTFVPRTVMIGGKAAPGYHMAKMIIKLVTSIGDVVNHDPVVGDRLRVIFLENYRVSLAEKVIPAADLSQQISTAGTEASGTGNMKFMLNGALTIGTMDGANVEMAEEAGEENLFIFGMRVEDVEALDQKGYNAQEFYERLPELRQAVDQISSGFFSPKDPDCFKDVVNMLMYHDRFKVFADYEAYIQCQAQVDHLYRNPKDWTKKVIRNIACSGKFSSDRTITEYAREIWGVEPSDLQIPPP
B7: Slc1a3 (protein, UniProt P24942 1-543)
chain: MTKSNGEEPRMGSRMERFQQGVRKRTLLAKKKVQNITKEDVKSYLFRNAFVLLTVSAVIVGTILGFALRPYKMSYREVKYFSFPGELLMRMLQMLVLPLIISSLVTGMAALDSKASGKMGMRAVVYYMTTTIIAVVIGIIIVIIIHPGKGTKENMYREGKIVQVTAADAFLDLIRNMFPPNLVEACFKQFKTSYEKRSFKVPIQANETLLGAVINNVSEAMETLTRIREEMVPVPGSVNGVNALGLVVFSMCFGFVIGNMKEQGQALREFFDSLNEAIMRLVAVIMWYAPLGILFLIAGKILEMEDMGVIGGQLAMYTVTVIVGLLIHAVIVLPLLYFLVTRKNPWVFIGGLLQALITALGTSSSSATLPITFKCLEENNGVDKRITRFVLPVGATINMDGTALYEALAAIFIAQVNNFDLNFGQIITISITATAASIGAAGIPQAGLVTMVIVLTSVGLPTDDITLIIAVDWFLDRLRTTTNVLGDSLGAGIVEHLSRHELKNRDVEMGNSVIEENEMKKPYQLIAQDNEPEKPVADSETKM
B8: Pfkl (protein, UniProt P30835 1-780)
chain: MATVDLEKLRMSGAGKAIGVLTSGGDAQGMNAAVRAVTRMGIYVGAKVFLIYEGYEGLVEGGENIKPANWLSVSNIIQLGGTIIGSARCKAFTTREGRLAAAYNLLQHGITNLCVIGGDGSLTGANIFRNEWGSLLEELVKEGKISESTAQNYAHLSIAGLVGSIDNDFCGTDMTIGTDSALHRIMEVIDAITTTAQSHQRTFVLEVMGRHCGYLALVSALASGADWLFIPEAPPEDGWENFMCERLGETRSRGSRLNIIIIAEGAIDRHGKPISSSYVKDLVVQRLGFDTRVTVLGHVQRGGTPSAFDRVLSSKMGMEAVMALLEATPDTPACVVSLSGNQSVRLPLMECVQVTKDVQKAMDEKRFDEAIQLRGRSFENNWKIYKLLAHQKVSKEKSNFSLAILNVGAPAAGMNAAVRSAVRTGISEGHTVYVVHDGFEGLAKGQVQEVGWHDVAGWLGRGGSMLGTKRTLPKPHLEAIVENLRTYNIHALLVIGGFEAYEGVLQLVEARGRYEELCIVMCVIPATISNNVPGTDFSLGSDTAVNAAMESCDRIKQSASGTKRRVFIVETMGGYCGYLATVTGIAVGADAAYVFEDPFNIHDLKANVEHMTEKMKTDIQRGLVLRNEKCHEHYTTEFLYNLYSSEGRGVFDCRTNVLGHLQQGGAPTPFDRNYGTKLGVKAMLWMSEKLRDVYRKGRVFANAPDSACVIGLRKKVVAFSSVTELKKETDFEHRMPREQWWLNLRLMLKMLAHYRISMADYVSGELEHVTRRTLSIDKGF

By UniProt entry, the sequences of proteins in these tests, tags left out.
UniProt Q9NZV8: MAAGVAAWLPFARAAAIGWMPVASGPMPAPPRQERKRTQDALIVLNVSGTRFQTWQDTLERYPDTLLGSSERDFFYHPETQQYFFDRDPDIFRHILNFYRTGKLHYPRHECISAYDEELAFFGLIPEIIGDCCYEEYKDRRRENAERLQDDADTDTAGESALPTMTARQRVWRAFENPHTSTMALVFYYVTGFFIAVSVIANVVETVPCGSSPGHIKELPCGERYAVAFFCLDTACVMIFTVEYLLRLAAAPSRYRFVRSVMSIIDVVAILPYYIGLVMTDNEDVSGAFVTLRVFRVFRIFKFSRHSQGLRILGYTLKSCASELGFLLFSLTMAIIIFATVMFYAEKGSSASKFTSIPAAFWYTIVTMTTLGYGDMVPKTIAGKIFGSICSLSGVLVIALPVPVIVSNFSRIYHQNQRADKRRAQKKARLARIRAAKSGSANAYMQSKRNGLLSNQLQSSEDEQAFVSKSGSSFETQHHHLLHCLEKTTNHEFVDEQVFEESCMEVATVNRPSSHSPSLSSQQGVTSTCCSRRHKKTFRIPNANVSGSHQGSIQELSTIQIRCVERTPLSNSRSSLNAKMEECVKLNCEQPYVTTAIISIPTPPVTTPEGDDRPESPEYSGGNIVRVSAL

These are yes or no findings as the source states them, for the method shown. Binding seen in cells or lysates may run through a third protein. These calls come from enrichment with a bait or labelling near it, and not all partners need be listed.

In the assay the target is TAP-Kv4.2 (human) (UniProt Q9NZV8). Put plainly: affinity purification with mass spectrometry; TAP-Kv4.2 expressed by lentivirus in rat hippocampal neurons, harvested at DIV14; weak lysis buffer of the kit (0.1% NP-40); streptavidin resin, then calmodulin resin; gel cut into high and low molecular weight fragments; no MS of the control sample.
B1: the binding result was “binds”.
Then B2, with “binds”.
To B3 belongs “binds”; to B4, “binds”; to B5, “binds”.
Then B6, with “binds”; and B7, with “binds”; and B8, with “binds”.

For the origin of these results see paper PMC9788671.
